Results deposited as PubChem BioAssay AID1259331 (Drosophila RNAi Screening Center, 2017).
Here is one part, drawn at random, of about 3,100 reagents. 126 of all reagents (4.1%) count as active. 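Calls are per reagent; zinc was so toxic that few knock-downs lowered ATP further, so most hits raise ATP.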 Raw values vary from plate to plate and are shown uncorrected. The numbers tell different reagents against one gene apart. Not stated in the record: the amount of reagent.

Purpose: 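Fly transmembrane-protein genes that affect zinc toxicity in cultured cells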 (primary screen)
Cell system: Drosophila S2R+ cells
Reagents: long dsRNA against Drosophila genes
Timing: 5 days (4 days knock-down, then 1 day zinc)
Challenge: zinc chloride at 15 mM final level for 1 day
Read-out: 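Luminescent ATP assay standing in for viability; Z score is the mean over three replicate plates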
Scale: mean Z score: higher = more ATP than other wells, better survival under zinc; ATP luminescence: higher = more ATP, more viable cells
Active means: 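a reagent is called a hit when its Z score is above 1.5 or below -1.5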
Meaning of the calls: active = hit, ATP up or down; inactive = not a hit

For MME1 (GeneID 33987) #1, how do the results read?
mean Z score: 0.0111; ATP luminescence, replicate 1: 54013; ATP luminescence, replicate 2: 58889; activity call: inactive

What did the screen give for MME1 (GeneID 33987) #2?
mean Z score: 0.162; ATP luminescence, replicate 1: 47617; ATP luminescence, replicate 2: 58626; activity call: inactive

With wun (GeneID 35966) #1, what does the deposit list?
mean Z score: 0.461; ATP luminescence, replicate 1: 34816; ATP luminescence, replicate 2: 33216; activity call: inactive

What did the screen give for wun (GeneID 35966) #2?
mean Z score: 0.429; ATP luminescence, replicate 1: 53790; ATP luminescence, replicate 2: 52127; activity call: inactive

For wun (GeneID 35966) #3, what does the deposit list?
mean Z score: -0.327; ATP luminescence, replicate 1: 45560; ATP luminescence, replicate 2: 40513; activity call: inactive

For comm (GeneID 39717) #1, how do the results read?
mean Z score: -0.157; ATP luminescence, replicate 1: 69698; ATP luminescence, replicate 2: 63136; activity call: inactive

With comm (GeneID 39717) #2, how do the results read?
mean Z score: 0.174; ATP luminescence, replicate 1: 60718; ATP luminescence, replicate 2: 57854; activity call: inactive

For Coq2 (GeneID 40988) #1, how do the results read?
mean Z score: -0.0116; ATP luminescence, replicate 1: 59294; ATP luminescence, replicate 2: 63170; activity call: inactive

How did the screen score Coq2 (GeneID 40988) #2?
mean Z score: 0.391; ATP luminescence, replicate 1: 58694; ATP luminescence, replicate 2: 55632; activity call: inactive

What did the screen give for spin (GeneID 45380) #1?
mean Z score: 0.227; ATP luminescence, replicate 1: 58111; ATP luminescence, replicate 2: 61175; activity call: inactive

How did the screen score spin (GeneID 45380) #2?
mean Z score: -0.0268; ATP luminescence, replicate 1: 63324; ATP luminescence, replicate 2: 54339; activity call: inactive

For trp (GeneID 43542) #1, how do the results read?
mean Z score: 0.42; ATP luminescence, replicate 1: 73083; ATP luminescence, replicate 2: 72946; activity call: inactive

What did the screen give for trp (GeneID 43542) #2?
mean Z score: 3.55; ATP luminescence, replicate 1: 1.16e5; ATP luminescence, replicate 2: 1.14e5; activity call: active

What is on record for PK2-R2 (GeneID 41638) #1?
mean Z score: -0.207; ATP luminescence, replicate 1: 37639; ATP luminescence, replicate 2: 57357; activity call: inactive

Which result is listed for PK2-R2 (GeneID 41638) #2?
mean Z score: -0.169; ATP luminescence, replicate 1: 57048; ATP luminescence, replicate 2: 56311; activity call: inactive

How did the screen score AstA-R2 (GeneID 43393)?
mean Z score: -0.204; ATP luminescence, replicate 1: 53018; ATP luminescence, replicate 2: 50177; activity call: inactive
